The list is a part of this screen's results and no random one: it is rich in T/C values a quarter to a half above the control, in often repeated tests (any T/C) and in doses without a T/C. Further doses and runs are listed elsewhere. T/C is the treated group as % of the vehicle group. Some entries give survivors of the animals treated and no T/C: the source files T/C as zero there, which appears to mark a toxic dose or a test without result, not a measured value. Some survivor counts are full or nearly so, which does not show that the dose was tolerated: the source hardly ever lists a survival T/C far under the control, and the zero likely stands for such cases as well. Survivors were counted at the toxicity check, usually on the fifth day, unless a day is given; later deaths do not show. Schedule codes are those of the source, read here as Q, the interval in days (D) or hours (H), X, the number of doses. Marks such as (2×) say how often a value occurs here. Some structures stand for samples that the source files as different forms (salt, stereo form or complex); doses refer to the form tested. For survival time, this PubChem deposit counts one and a half times the control or more as active, and values a quarter to a half above the control carry no call in these data; other NCI protocols may use other cut-offs. Some entries hold several experiments; their values stand side by side, smallest first. Some T/C values carry the count of animals alive at the toxicity check (mostly the fifth day); where none is given, no animal had died by that day.
Tested on: P388 leukemia ip, CD2F1 mice, survival T/C
Assay: NCI In Vivo Anticancer Drug Screen. Data for tumor model P388 Leukemia (intraperitoneal) in CD2F1 (CDF1) mice
Settings: T/C endpoint: median survival time, higher T/C = longer survival
[1] = dose: 200.0 mg/kg/injection, schedule: Q01DX009 (ip), vehicle: saline with Tween-80
[2] = dose: 100.0 mg/kg/injection, schedule: Q01DX009 (ip), vehicle: saline with Tween-80

CC(C)(C[NH-])C[NH-].[Cl][Pt+2][Cl]
T/C (dose: 0.25 mg/kg/injection, schedule: Q04DX003 (ip), vehicle: water, evaluated on day 30): 118 and 153 % of control | T/C (dose: 0.25 mg/kg/injection, schedule: Q04DX003 (ip), vehicle: water, evaluated on day 45): 142 % of control | T/C (dose: 0.25 mg/kg/injection, schedule: Q04DX003 (ip), vehicle: water, evaluated on day 55): 152 % of control | T/C (dose: 0.5 mg/kg/injection, schedule: Q04DX003 (ip), vehicle: water, evaluated on day 30): 134 and 151 % of control | T/C (dose: 0.5 mg/kg/injection, schedule: Q04DX003 (ip), vehicle: water, evaluated on day 45): 166 % of control | T/C (dose: 0.5 mg/kg/injection, schedule: Q04DX003 (ip), vehicle: water, evaluated on day 55): 161 % of control | T/C (dose: 1.0 mg/kg/injection, schedule: Q04DX003 (ip), vehicle: water, evaluated on day 30): 164 and 175 % of control | T/C (dose: 1.0 mg/kg/injection, schedule: Q04DX003 (ip), vehicle: water, evaluated on day 45): 196 % of control | T/C (dose: 1.0 mg/kg/injection, schedule: Q04DX003 (ip), vehicle: water, evaluated on day 55): 164 % of control | T/C (dose: 2.0 mg/kg/injection, schedule: Q04DX003 (ip), vehicle: water, evaluated on day 30): 166 and 200 % of control | T/C (dose: 2.0 mg/kg/injection, schedule: Q04DX003 (ip), vehicle: water, evaluated on day 45): 245 % of control | T/C (dose: 2.0 mg/kg/injection, schedule: Q04DX003 (ip), vehicle: water, evaluated on day 55): 183 % of control | T/C (dose: 4.0 mg/kg/injection, schedule: Q04DX003 (ip), vehicle: water, evaluated on day 30): 216 % of control | T/C (dose: 4.0 mg/kg/injection, schedule: Q04DX003 (ip), vehicle: water, evaluated on day 55): 200 % of control | survivor count (dose: 4.0 mg/kg/injection, schedule: Q04DX003 (ip), vehicle: water): 6 of 6 (2×)

NCC1CC2(Cl)C(Cl)=C(Cl)C1(Cl)C2(Cl)Cl (centres undefined)
survivor count (dose: 100.0 mg/kg/injection, schedule: Q01DX005 (ip), vehicle: saline with Tween-80): 0 of 6 | survivor count (dose: 200.0 mg/kg/injection, schedule: Q01DX005 (ip), vehicle: saline with Tween-80): 0 of 6

Cc1ccc(NC(=O)Oc2cc(C)c(Cl)c(C)c2Cl)c([N+](=O)[O-])c1
survivor count [1]: 5 of 6

CCCCCCCCS(=O)(=O)NC
survivor count (dose: 50.0 mg/kg/injection, schedule: Q01DX009 (ip), vehicle: saline): 6 of 6 | survivor count (dose: 100.0 mg/kg/injection, schedule: Q01DX009 (ip), vehicle: saline): 6 of 6 | survivor count (dose: 200.0 mg/kg/injection, schedule: Q01DX009 (ip), vehicle: saline): 6 of 6 | survivor count (dose: 400.0 mg/kg/injection, schedule: Q01DX009 (ip), vehicle: saline): 6 of 6

CC/C([O-])=C1/C(=O)N(c2ccccc2)N=C1C.CC/C([O-])=C1/C(=O)N(c2ccccc2)N=C1C.[Cu+2]
survivor count (dose: 240.0 mg/kg/injection, schedule: Q01DX005 (ip), vehicle: saline with Tween-80): 6 of 6

CCCc1c(C(=O)OCCCN(CC)CC)c(C(=O)OCCCN(CC)CC)c(CCC)n1-c1ccccc1
survivor count (dose: 50.0 mg/kg/injection, schedule: Q01DX005 (ip), vehicle: saline): 4 of 5 | survivor count (dose: 100.0 mg/kg/injection, schedule: Q01DX005 (ip), vehicle: saline): 0 of 5 | survivor count (dose: 200.0 mg/kg/injection, schedule: Q01DX005 (ip), vehicle: saline): 0 of 5

CN=C(N)c1ccc(N=C(N)c2ccc(-c3ccc(C(N)=Nc4ccc(C(N)=NC)cc4)cc3)cc2)cc1
T/C (dose: 5.3 mg/kg/injection, schedule: Q01DX009 (ip), vehicle: saline): 131 % of control | T/C (dose: 8.0 mg/kg/injection, schedule: Q01DX009 (ip), vehicle: saline): 140 % of control | T/C (dose: 12.0 mg/kg/injection, schedule: Q01DX009 (ip), vehicle: saline): 140 % of control

O=[Se](=O)(O)O
survivor count (dose: 30.0 mg/kg/injection, schedule: Q01DX005 (ip), vehicle: saline): 2 of 6 | survivor count (dose: 60.0 mg/kg/injection, schedule: Q01DX005 (ip), vehicle: saline): 0 of 6 (2×) | survivor count (dose: 120.0 mg/kg/injection, schedule: Q01DX005 (ip), vehicle: saline): 0 of 6 (2×) | survivor count (dose: 240.0 mg/kg/injection, schedule: Q01DX005 (ip), vehicle: saline): 0 of 6 (2×)

CC(/C=N\NC(=O)C[N+](C)(C)C)=N/NC(=O)C[N+](C)(C)C
survivor count (dose: 100.0 mg/kg/injection, schedule: Q01DX001 (ip), vehicle: saline): 0 of 6 | survivor count (dose: 200.0 mg/kg/injection, schedule: Q01DX001 (ip), vehicle: saline): 0 of 6 | survivor count (dose: 400.0 mg/kg/injection, schedule: Q01DX001 (ip), vehicle: saline): 0 of 6

Cc1[nH]nc(C(N)=O)c1N=NN(C)C
T/C (dose: 25.0 mg/kg/injection, schedule: Q01DX009 (ip), vehicle: saline with Tween-80): 145 % of control | survivor count [2]: 6 of 6 | survivor count [1]: 4 of 6 | T/C (dose: 200.0 mg/kg/injection, schedule: Q04DX003 (ip), vehicle: saline with Tween-80): 145 % of control [5 of 6 alive] | survivor count (dose: 300.0 mg/kg/injection, schedule: Q04DX003 (ip), vehicle: saline with Tween-80): 6 of 6

Cc1c2oc3c(C)ccc(C(=O)NC4C(=O)NC(C(C)C)C(=O)N5CCCC5C(=O)N(C)CC(=O)N(C)C(C(C)C)C(=O)OC4C)c3nc-2c(C(=O)NC2C(=O)NC(C(C)C)C(=O)N3CCCC3C(=O)N(C)CC(=O)N(C)C(C(C)C)C(=O)OC2C)c(N)c1=O (centres undefined)
T/C (dose: 0.05 mg/kg/injection, schedule: Q01DX009 (ip), vehicle: distilled water + Tween-80): 145 % of control | T/C (dose: 0.05 mg/kg/injection, schedule: Q01DX009 (ip), vehicle: water): 141 % of control | T/C (dose: 0.1 mg/kg/injection, schedule: Q01DX009 (ip), vehicle: water): 141 % of control | T/C (dose: 0.44 mg/kg/injection, schedule: Q01DX009 (ip), vehicle: water, evaluated on day 5): 198 and 252 % of control | T/C (dose: 0.44 mg/kg/injection, schedule: Q01DX009 (ip), vehicle: water, evaluated on day 97): 198 and 252 % of control | T/C (dose: 0.64 mg/kg/injection, schedule: Q01DX009 (ip), vehicle: water, evaluated on day 5): 234 % of control (2×) | T/C (dose: 0.64 mg/kg/injection, schedule: Q01DX009 (ip), vehicle: water, evaluated on day 97): 234 % of control (2×) | T/C (dose: 0.66 mg/kg/injection, schedule: Q01DX009 (ip), vehicle: water, evaluated on day 5): 270 and 360 % of control | T/C (dose: 0.66 mg/kg/injection, schedule: Q01DX009 (ip), vehicle: water, evaluated on day 97): 270 and 360 % of control | survivor count (dose: 0.8 mg/kg/injection, schedule: Q01DX009 (ip), vehicle: distilled water + Tween-80): 5 of 6 | survivor count (dose: 0.8 mg/kg/injection, schedule: Q01DX009 (ip), vehicle: water): 6 of 6 | T/C (dose: 0.84 mg/kg/injection, schedule: Q01DX009 (ip), vehicle: water, evaluated on day 5): 252 and 270 % of control | T/C (dose: 0.84 mg/kg/injection, schedule: Q01DX009 (ip), vehicle: water, evaluated on day 97): 252 and 270 % of control | T/C (dose: 0.96 mg/kg/injection, schedule: Q01DX009 (ip), vehicle: water, evaluated on day 5): 243 and 288 % of control | T/C (dose: 0.96 mg/kg/injection, schedule: Q01DX009 (ip), vehicle: water, evaluated on day 97): 243 and 288 % of control | T/C (dose: 1.26 mg/kg/injection, schedule: Q01DX009 (ip), vehicle: water, evaluated on day 5): 243 and 349 % of control | T/C (dose: 1.26 mg/kg/injection, schedule: Q01DX009 (ip), vehicle: water, evaluated on day 97): 243 and 349 % of control | survivor count (dose: 1.6 mg/kg/injection, schedule: Q01DX009 (ip), vehicle: distilled water + Tween-80): 2 of 6 | survivor count (dose: 1.6 mg/kg/injection, schedule: Q01DX009 (ip), vehicle: water): 6 of 6

Cc1c2ccncc2c(O)c2c3ccccc3n(C)c12
survivor count (dose: 100.0 mg/kg/injection, schedule: Q01DX005 (ip), vehicle: Klucel (hydroxypropylcellulose) (HPC)): 3 of 6 | survivor count (dose: 200.0 mg/kg/injection, schedule: Q01DX005 (ip), vehicle: Klucel (hydroxypropylcellulose) (HPC)): 0 of 6

ClC(Cl)(Cl)C1=NCc2nnn(Cc3ccccc3)c2N1
T/C (dose: 100.0 mg/kg/injection, schedule: Q01DX009 (ip), vehicle: Klucel (hydroxypropylcellulose) (HPC)): 127 % of control | T/C [2]: 126 % of control
